{
  "sequences": {"note": "Sequences of proteins named here, by UniProt entry; tags and fusion partners are left off.", "UniProt Q99873": "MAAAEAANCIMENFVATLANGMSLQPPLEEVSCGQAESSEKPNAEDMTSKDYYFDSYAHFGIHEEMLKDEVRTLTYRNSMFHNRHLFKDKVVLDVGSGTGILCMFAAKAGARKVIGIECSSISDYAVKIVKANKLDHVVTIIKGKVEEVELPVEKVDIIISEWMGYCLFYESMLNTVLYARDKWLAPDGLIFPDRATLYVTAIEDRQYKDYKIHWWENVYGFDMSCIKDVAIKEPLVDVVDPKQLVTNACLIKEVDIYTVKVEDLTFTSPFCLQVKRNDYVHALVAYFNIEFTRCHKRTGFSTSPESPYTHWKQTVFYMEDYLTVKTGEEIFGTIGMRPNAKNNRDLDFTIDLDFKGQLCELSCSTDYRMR", "UniProt Q9JIF0": "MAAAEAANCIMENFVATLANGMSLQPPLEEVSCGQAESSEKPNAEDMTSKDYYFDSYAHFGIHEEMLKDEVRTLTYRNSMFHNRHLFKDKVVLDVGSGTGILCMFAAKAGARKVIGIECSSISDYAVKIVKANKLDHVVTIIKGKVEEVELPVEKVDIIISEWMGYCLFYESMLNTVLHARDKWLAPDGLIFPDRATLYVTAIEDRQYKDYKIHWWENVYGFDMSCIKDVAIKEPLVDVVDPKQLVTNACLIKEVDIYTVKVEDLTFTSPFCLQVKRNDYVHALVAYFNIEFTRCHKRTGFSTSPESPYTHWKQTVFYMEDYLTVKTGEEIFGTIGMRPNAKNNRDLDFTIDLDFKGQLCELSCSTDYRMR", "UniProt Q99684": "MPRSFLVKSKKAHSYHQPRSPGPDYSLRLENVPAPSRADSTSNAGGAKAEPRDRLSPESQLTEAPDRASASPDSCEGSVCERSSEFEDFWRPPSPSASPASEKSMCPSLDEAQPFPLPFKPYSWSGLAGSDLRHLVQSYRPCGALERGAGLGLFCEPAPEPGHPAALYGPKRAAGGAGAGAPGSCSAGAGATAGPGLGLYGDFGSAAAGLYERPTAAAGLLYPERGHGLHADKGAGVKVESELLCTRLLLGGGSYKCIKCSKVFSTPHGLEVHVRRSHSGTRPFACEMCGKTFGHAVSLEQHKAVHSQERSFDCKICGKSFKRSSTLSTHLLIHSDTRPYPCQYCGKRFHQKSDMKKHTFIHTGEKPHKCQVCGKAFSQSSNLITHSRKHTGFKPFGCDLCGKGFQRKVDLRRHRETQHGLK", "UniProt Q12888": "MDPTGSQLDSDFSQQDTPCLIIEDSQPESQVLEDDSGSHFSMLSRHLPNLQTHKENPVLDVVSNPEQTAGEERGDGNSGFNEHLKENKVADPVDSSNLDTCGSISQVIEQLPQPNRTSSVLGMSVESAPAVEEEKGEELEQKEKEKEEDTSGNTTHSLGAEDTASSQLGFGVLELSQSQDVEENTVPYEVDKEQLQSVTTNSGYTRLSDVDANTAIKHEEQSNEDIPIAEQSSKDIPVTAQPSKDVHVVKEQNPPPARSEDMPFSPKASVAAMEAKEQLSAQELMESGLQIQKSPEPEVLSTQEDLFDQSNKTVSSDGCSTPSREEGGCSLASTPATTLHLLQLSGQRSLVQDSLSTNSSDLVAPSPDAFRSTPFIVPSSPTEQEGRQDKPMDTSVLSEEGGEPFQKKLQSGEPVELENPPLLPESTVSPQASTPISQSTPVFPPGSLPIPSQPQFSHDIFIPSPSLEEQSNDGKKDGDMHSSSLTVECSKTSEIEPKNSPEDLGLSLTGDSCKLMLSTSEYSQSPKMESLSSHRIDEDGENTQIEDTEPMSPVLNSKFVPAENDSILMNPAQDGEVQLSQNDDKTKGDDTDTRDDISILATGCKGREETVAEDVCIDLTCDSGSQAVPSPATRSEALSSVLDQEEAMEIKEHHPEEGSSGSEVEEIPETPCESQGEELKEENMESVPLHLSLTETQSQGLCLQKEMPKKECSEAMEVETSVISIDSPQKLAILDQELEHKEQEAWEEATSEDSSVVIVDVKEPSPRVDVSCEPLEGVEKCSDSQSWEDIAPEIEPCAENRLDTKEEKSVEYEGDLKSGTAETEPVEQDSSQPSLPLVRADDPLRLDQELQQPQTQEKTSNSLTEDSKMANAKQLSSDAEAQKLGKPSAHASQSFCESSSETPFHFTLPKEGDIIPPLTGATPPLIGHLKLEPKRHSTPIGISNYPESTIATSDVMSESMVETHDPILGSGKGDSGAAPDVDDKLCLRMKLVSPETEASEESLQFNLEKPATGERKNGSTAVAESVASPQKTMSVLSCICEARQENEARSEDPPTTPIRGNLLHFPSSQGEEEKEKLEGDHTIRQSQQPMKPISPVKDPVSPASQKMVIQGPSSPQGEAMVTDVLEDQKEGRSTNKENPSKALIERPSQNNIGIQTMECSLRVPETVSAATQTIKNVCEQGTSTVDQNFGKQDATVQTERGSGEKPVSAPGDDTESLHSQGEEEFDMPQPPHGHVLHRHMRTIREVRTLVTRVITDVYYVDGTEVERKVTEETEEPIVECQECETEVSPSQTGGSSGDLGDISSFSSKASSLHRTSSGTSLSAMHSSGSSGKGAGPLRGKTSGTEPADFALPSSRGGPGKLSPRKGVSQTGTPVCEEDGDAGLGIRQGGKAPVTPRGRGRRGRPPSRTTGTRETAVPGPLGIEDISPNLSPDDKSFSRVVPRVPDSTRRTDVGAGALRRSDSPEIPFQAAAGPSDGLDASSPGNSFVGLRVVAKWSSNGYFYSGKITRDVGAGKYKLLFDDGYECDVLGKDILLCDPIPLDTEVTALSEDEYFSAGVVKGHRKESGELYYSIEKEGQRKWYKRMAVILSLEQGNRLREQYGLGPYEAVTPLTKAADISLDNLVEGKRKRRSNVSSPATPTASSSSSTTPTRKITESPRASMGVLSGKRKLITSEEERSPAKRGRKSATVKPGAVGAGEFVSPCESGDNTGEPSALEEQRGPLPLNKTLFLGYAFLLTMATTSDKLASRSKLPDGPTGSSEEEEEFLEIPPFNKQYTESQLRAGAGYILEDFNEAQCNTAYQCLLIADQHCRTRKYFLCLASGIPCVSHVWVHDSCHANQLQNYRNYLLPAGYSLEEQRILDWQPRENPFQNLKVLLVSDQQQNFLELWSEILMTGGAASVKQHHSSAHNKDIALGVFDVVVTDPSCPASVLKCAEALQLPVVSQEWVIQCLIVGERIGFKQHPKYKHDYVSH", "UniProt P70399": "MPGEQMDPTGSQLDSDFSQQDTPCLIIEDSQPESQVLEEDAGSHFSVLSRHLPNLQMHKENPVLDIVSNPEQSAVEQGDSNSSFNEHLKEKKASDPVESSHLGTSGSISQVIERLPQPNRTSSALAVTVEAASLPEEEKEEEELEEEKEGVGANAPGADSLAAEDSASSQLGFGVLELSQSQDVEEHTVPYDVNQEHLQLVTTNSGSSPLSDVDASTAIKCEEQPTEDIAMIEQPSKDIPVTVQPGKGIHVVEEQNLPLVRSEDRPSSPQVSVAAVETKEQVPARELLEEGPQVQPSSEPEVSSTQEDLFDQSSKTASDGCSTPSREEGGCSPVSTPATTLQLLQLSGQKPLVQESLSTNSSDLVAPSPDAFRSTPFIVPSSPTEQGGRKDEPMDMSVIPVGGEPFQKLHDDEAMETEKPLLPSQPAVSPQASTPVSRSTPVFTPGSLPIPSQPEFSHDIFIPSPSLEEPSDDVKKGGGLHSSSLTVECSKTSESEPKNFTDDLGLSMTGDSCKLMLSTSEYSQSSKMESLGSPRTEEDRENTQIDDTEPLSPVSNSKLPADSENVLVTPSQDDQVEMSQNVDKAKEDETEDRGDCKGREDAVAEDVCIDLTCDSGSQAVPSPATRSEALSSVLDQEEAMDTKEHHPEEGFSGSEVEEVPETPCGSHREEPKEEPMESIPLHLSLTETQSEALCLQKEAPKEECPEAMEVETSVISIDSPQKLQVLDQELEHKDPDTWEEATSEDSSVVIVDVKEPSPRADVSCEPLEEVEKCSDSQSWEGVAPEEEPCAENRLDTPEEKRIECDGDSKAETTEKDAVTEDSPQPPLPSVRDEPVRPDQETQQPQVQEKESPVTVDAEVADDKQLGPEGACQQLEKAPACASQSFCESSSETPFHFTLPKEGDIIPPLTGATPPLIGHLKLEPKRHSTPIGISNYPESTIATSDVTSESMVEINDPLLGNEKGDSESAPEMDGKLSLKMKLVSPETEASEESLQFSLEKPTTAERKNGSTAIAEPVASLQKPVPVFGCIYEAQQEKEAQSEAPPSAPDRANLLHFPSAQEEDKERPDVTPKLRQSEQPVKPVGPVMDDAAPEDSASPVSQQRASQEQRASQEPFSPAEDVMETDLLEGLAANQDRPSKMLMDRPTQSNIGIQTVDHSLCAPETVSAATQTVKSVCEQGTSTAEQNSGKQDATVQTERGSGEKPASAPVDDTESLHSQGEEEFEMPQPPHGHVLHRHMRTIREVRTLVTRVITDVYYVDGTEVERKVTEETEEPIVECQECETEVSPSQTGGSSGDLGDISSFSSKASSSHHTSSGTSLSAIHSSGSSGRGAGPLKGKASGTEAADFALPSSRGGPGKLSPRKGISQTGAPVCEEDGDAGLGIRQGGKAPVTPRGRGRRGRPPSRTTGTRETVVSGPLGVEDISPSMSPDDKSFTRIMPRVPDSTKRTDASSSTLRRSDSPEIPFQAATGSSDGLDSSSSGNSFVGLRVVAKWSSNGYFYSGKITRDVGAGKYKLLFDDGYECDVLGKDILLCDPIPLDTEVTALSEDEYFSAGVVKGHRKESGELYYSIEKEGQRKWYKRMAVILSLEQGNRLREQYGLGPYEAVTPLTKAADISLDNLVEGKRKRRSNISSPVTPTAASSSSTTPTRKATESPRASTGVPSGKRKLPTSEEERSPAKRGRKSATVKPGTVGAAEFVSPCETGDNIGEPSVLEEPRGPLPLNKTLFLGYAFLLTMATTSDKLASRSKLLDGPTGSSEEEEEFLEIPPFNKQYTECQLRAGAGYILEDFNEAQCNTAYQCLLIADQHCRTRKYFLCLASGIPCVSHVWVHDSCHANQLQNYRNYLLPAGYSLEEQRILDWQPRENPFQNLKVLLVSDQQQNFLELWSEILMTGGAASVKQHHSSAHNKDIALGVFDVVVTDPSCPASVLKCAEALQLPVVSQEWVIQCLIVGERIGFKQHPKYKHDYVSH"},
  "source": "paper PMC5897347",
  "key": {"[1]": {"target": "Protein arginine methyltransferase 1 (PRMT1) (human (endogenous in 293T, SupT1, Jurkat)) (UniProt Q99873)", "experiment": "co-IP; Jurkat cells, parental and GFI1-deficient (Supplementary Fig. 7a-d); PRMT1 with MRE11 and 53BP1"}, "[2]": {"target": "PRMT1 (mouse thymocytes) (mouse (endogenous in thymocytes)) (UniProt Q9JIF0)", "experiment": "co-IP; nuclear extracts of thymocytes of Gfi1 WT mice; PRMT1 immunoprecipitated and blotted for MRE11, and MRE11 immunoprecipitated and blotted for PRMT1; PRMT1 with 53BP1 likewise (compared with Gfi1 KO)"}, "[3]": {"target": "GFI1 (endogenous, human T-cell lines) (human (endogenous in SupT1, Jurkat)) (UniProt Q99684)", "experiment": "co-IP; endogenous GFI1 immunoprecipitated from non-transfected SupT1 and Jurkat cells, blotted for MRE11 and PRMT1"}, "[4]": {"target": "GFI1-Flag fusion protein (full length GFI1) (UniProt Q99684)", "experiment": "co-IP; GFI1-Flag and its variants immunoprecipitated from 293T cells, blotted for endogenous proteins; also in the presence or absence of benzonase and at times after 5 Gy IR"}},
  "note": "Results are given in words; binding and its absence hold for the method and conditions named. Binding seen in cells or lysates may run through a third protein. Some binding calls cover weakened binding; strength is not graded here.",
  "data": [
    {"substance": "53BP1 (Jurkat cells) (from UniProt Q12888 1-1972)", "values": [
      {"measurement": "binding", "setting": "[1]", "result": "binds"}
    ]},
    {"substance": "53BP1 (mouse thymocytes) (from UniProt P70399 1-1969)", "values": [
      {"measurement": "binding", "setting": "[2]", "result": "binds"}
    ]},
    {"substance": "Protein arginine methyltransferase 1 (PRMT1) (from UniProt Q99873 1-371) (enzyme)", "values": [
      {"measurement": "binding", "setting": "[3]", "result": "binds"},
      {"measurement": "binding", "setting": "[4]", "result": "binds"}
    ]}
  ]
}
